Results published in patent US8778958B2, “Synthesis of metabolically stable agents for alcohol and drug abuse” (priority 2008, dated 2014).
The match of structure and compound is tentative.

Amino acid sequences for entries named in this document (tags omitted).
UniProt P35372, whole entry: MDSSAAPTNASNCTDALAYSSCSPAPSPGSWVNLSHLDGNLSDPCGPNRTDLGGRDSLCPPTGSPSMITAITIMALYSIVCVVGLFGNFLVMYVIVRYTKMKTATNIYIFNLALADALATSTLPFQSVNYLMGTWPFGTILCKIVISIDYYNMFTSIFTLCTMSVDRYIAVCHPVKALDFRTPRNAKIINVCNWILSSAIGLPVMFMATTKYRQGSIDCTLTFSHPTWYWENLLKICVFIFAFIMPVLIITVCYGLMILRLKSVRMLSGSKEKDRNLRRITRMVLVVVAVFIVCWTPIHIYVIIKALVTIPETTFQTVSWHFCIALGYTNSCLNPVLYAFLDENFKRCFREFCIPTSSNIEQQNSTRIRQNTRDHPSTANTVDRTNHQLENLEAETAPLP

Experiments:
μ-opioid receptor = μ-opioid receptor (Homo sapiens, UniProt P35372); experiment: Competitive radioligand binding, μ-opioid receptor ([3H]DAMGO); conditions: read-out: Ki (nM) ± SEM, μ; Table 1b, N-oxides
δ-opioid receptor = δ-opioid receptor (Homo sapiens, UniProt P41143); experiment: Competitive radioligand binding, δ-opioid receptor; conditions: Table 1b; for Ki: read-out: Ki (nM) ± SEM, δ, N-oxides
κ-opioid receptor = κ-opioid receptor (Homo sapiens, UniProt P41145); experiment: Competitive radioligand binding, κ-opioid receptor ([3H]U69593); conditions: read-out: Ki (nM) ± SEM, κ; Table 1b, N-oxides

Structure (SMILES) | Ki (μ-opioid receptor) [nM] | Ki (δ-opioid receptor) [nM] | Ki (κ-opioid receptor) [nM] | Inhibition of agonist binding, δ (δ-opioid receptor; concentration not given) [% inh]
CN(C(=O)c1ccc(Br)cc1)[C@@H]1CC[C@@]2(O)[C@H]3Cc4ccc(O)c5c4[C@@]2(CC[N+]3([O-])CC2CC2)[C@H]1O5 (stereo partly drawn) | 193 | 5090 | 168 | –
CN(C(=O)c1ccc(C(F)(F)F)cc1)[C@@H]1CC[C@@]2(O)[C@H]3Cc4ccc(O)c5c4[C@@]2(CC[N+]3([O-])CC2CC2)[C@H]1O5 (stereo partly drawn) | 378 | 1640 | 195 | –
CN(C(=O)c1ccc(C(F)(F)F)cc1)[C@H]1CC[C@@]2(O)[C@H]3Cc4ccc(O)c5c4[C@@]2(CC[N+]3([O-])CC2CC2)[C@H]1O5 (stereo partly drawn) | 13.4 | 148 | 4.9 | –
CN(C(=O)c1ccc(Cl)c(Cl)c1)[C@@H]1CC[C@@]2(O)[C@H]3Cc4ccc(O)c5c4[C@@]2(CC[N+]3([O-])CC2CC2)[C@H]1O5 (stereo partly drawn) | 196 | – | 367 | <50
CS(=O)(=O)c1ccc(C(=O)N[C@@H]2CC[C@@]3(O)[C@H]4Cc5ccc(O)c6c5[C@@]3(CC[N+]4([O-])CC3CC3)[C@H]2O6)cc1 (stereo partly drawn) | 23.8 | 187 | 9.2 | –
